Assay results as given in patent publication US20040176471A1, “Novel chalcone derivatives and pharmaceutical compositions comprising the same” (KAOHSIUNG MEDICAL UNIVERSITY, priority 2003, published 2004).
At least one compound was matched to its structure with a doubt left. Some entries share one result that the patent states for a list of compounds.

Tests used:
N9 cells = test: NO production (nitrite accumulation, Griess reaction) in LPS/IFN-γ-stimulated microglial cells; assay type: cell-based, murine
Method: Cells of murine microglial cell line N9 (kindly provided by Dr. P. Ricciardi-Castagnoli, CNR Cellular and Molecular Pharmacology Center, Italy) (S. B. Corradin et al. (1993), Glia, 7, 255-262) were suspended in Iscove's Modified Dulbecco's medium containing 5% heat-inactivated FCS and antibiotics and then plated into 96-well tissue-culture plates at 8×10^4 cells/200 μL per well. The cells were treated with DMSO or a tested compound at 37° C. for 1 hr, followed by stimulation with LPS (10 ng/mL)/IFN-γ (10 unit/mL) for 24 hrs. Thereafter, the medium in each well was collected and stored at −70° C. until use. The final volume of DMSO in the reaction mixture was<0.5%
The production of NO in cell medium was determined by measuring the content of nitrite based on the Griess reaction (L. Mingghetti et at (1997), Glia, 19, 152-160). Briefly, 40 μL of 5 mM sulfanilamide, 10 μL of 2 M HCl, and 20 μL of 40 mM naphthylethylenediamine were added into 150 μL culture medium in sequence. After 10 min of incubation at room temperature, absorbance was measured at 550 nm in a microplate reader. A standard nitrite curve was generated in the same fashion, using NaNO2.

rat neutrophils [1] = test: Superoxide anion generation in neutrophils stimulated with fMLP/CB or PMA (cytochrome c reduction); assay type: cell-based; settings: for effect on PMA-induced superoxide anion response (in words): PMA (3 nM)
Method: Superoxide anion generation was measured in terms of superoxide dismutase-inhibitable cytochrome c reduction (M. Market et al. (1984), Methods Enzymol., 105, 358). Neutrophil suspension was preincubated with DMSO or a tested compound for 3 min, and then superoxide dismutase or Hank's balanced salt solution (HBSS) was added into the blank and test wells, respectively. The final volume of DMSO in the reaction mixture was≦0.5%. After addition of cytochrome c, reaction was initiated by challenge with formyl-Met-Leu-Phe (fMLP) (0.3 μM)/cytochalasin B (CB) (5 μg/mL) or phorbol myristate acetate (PMA) (3 nM). Thirty minutes later, the reaction was terminated by centrifugation and the absorbance changes of supernatant were monitored at 550 nm in a microplate reader. In the experiment, Trifluoperazine was used as a positive control

rat neutrophils [2] = test: Neutrophil degranulation stimulated with fMLP/CB (release of β-glucuronidase and lysozyme); assay type: cell-based
Method: Blood was withdrawn from rat (Sprague-Dawley, 250-300 g, 10-12 weeks old) and mixed with EDTA. […] Cell suspension was preincubated at 37° C. with DMSO or drugs for 10 min, and then challenged with fMLP (1 μM)/CB (5 μg/mL). The final volume of DMSO in the reaction mixture was≦0.5%. […] After treatment of the cell suspension with Triton X-100, the total content of lysozyme and β-glucuronidase was measured and the percentage release was calculated. In the experiment, Trifluoperazine was used as a positive control.

SMILES: COc1ccc(OC)c(C(=O)/C=C/c2ccc(O)cc2)c1 [Compound 1, 2′,5′-Dimethoxy-4-hydroxychalcone]
- inhibition of NO production in N9 microglial cells (in words) (N9 cells): parallel inhibition of NO production
- effect on PMA-induced superoxide anion response (in words) (rat neutrophils [1]): no appreciable effect
- inhibitory effect on fMLP/CB-induced superoxide anion generation (in words) (rat neutrophils [1]): potent inhibitory effects
- inhibitory effect on neutrophil degranulation (in words) (rat neutrophils [2]): potent and concentration-dependent inhibitory effects

SMILES: O=C(/C=C/c1ccc(Cl)c(Cl)c1)c1cc(O)ccc1O [Compound 4, 3,4-Dichloro-2′,5′-dihydroxychalcone]
- inhibition of NO production in N9 microglial cells (in words) (N9 cells): parallel inhibition of NO production
- effect on PMA-induced superoxide anion response (in words) (rat neutrophils [1]): no appreciable effect
- inhibitory effect on fMLP/CB-induced superoxide anion generation (in words) (rat neutrophils [1]; listed as compound 4): potent inhibitory effects

SMILES: CCOc1ccc(OCC)c(C(=O)/C=C/c2ccc(Cl)c(Cl)c2)c1 [Compound 5, 3,4-Dichloro-2′,5′-diethoxychalcone]
- inhibition of NO production in N9 microglial cells (in words) (N9 cells): parallel inhibition of NO production
- effect on PMA-induced superoxide anion response (in words) (rat neutrophils [1]): no appreciable effect

SMILES: CCCOc1ccc(O)c(C(=O)/C=C/c2ccc(Cl)c(Cl)c2)c1 [Compound 6, 3,4-Dichloro-2′-hydroxy-5′-propoxy-chalcone]
- inhibition of NO production in N9 microglial cells (in words) (N9 cells): parallel inhibition of NO production
- effect on PMA-induced superoxide anion response (in words) (rat neutrophils [1]): no appreciable effect
- inhibitory effect on fMLP/CB-induced superoxide anion generation (in words) (rat neutrophils [1]): potent inhibitory effects
- inhibitory effect on neutrophil degranulation (in words) (rat neutrophils [2]): potent and concentration-dependent inhibitory effects

SMILES: COc1ccc(OC)c(C(=O)/C=C/c2ccc(Br)cc2)c1 [Compound 2, 4-Bromo-2′,5′-dimethoxychalcone]
- inhibition of NO production in N9 microglial cells (in words) (N9 cells): parallel inhibition of NO production
- effect on PMA-induced superoxide anion response (in words) (rat neutrophils [1]): no appreciable effect
- inhibitory effect on fMLP/CB-induced superoxide anion generation (in words) (rat neutrophils [1]): potent inhibitory effects
- inhibitory effect on neutrophil degranulation (in words) (rat neutrophils [2]): potent and concentration-dependent inhibitory effects

SMILES: O=C(/C=C/c1cccs1)c1cccs1 [Compound 8, 2′,2-Dithienylchalcone]
- inhibition of NO production in N9 microglial cells (in words) (N9 cells): parallel inhibition of NO production
- effect on PMA-induced superoxide anion response (in words) (rat neutrophils [1]): no appreciable effect
- inhibitory effect on fMLP/CB-induced superoxide anion generation (in words) (rat neutrophils [1]): potent inhibitory effects
- inhibitory effect on neutrophil degranulation (in words) (rat neutrophils [2]): no significant inhibitory effects

SMILES: COc1ccc(OC)c(C(=O)/C=C/c2ccc(Cl)c(Cl)c2)c1 [Compound 3, 3,4Dichloro-2′,5′-dimethoxychalcone]
- inhibition of NO production in N9 microglial cells (in words) (N9 cells): parallel inhibition of NO production
- effect on PMA-induced superoxide anion response (in words) (rat neutrophils [1]): no appreciable effect
- inhibitory effect on fMLP/CB-induced superoxide anion generation (in words) (rat neutrophils [1]): potent inhibitory effects
- inhibitory effect on neutrophil degranulation (in words) (rat neutrophils [2]): potent and concentration-dependent inhibitory effects

SMILES: O=C(/C=C/c1ccsc1)c1cc(O)ccc1O [Compound 7, 2′,5′-Dihydroxy-3-thienylchalcone]
- inhibition of NO production in N9 microglial cells (in words) (N9 cells): parallel inhibition of NO production
- effect on PMA-induced superoxide anion response (in words) (rat neutrophils [1]): no appreciable effect
- inhibitory effect on fMLP/CB-induced superoxide anion generation (in words) (rat neutrophils [1]): not to have significant inhibitory effects
